Source: the supplement of paper PMC10663445
“And” between values parts separate entries of the source, which are not always exact repeats. Equal values may be shown once. Where a name gives a salt, the structure may show the parent alone. Some of the results follow. Most values come without repeats; read them as rough.

The molecules below were run on hsa-miR-132-3p (assay: miR-132-3p level in NGN2-iNs after compound treatment (TMM-normalised, ComBat batch-corrected) (batch-corrected normalised expression (arbitrary units)); higher = higher miR-132-3p expression). Settings: 10 µM; 24 h; human iPSC-derived NGN2 neurons (BR43).

| Compound | miR-132-3p level in NGN2-iNs |
| --- | --- |
| Nc1ccc2ncnc(NCCc3ccc(Oc4ccccc4)cc3)c2c1 | -0.199 |
| CCOC(=O)N1CCC(=C2c3ccc(Cl)cc3CCc3cccnc32)CC1 [Loratadine] | 0.229 |
| Nc1nc(F)nc2c1ncn2[C@@H]1O[C@H](COP(=O)(O)O)[C@@H](O)[C@@H]1O [Fludarabine Phosphate] | -0.162 |
| COC(=O)[C@H](c1ccccc1Cl)N1CCc2sccc2C1 [Clopidogrel] | 0.012 |
| COCCCC/C(=N\OCCN)c1ccc(C(F)(F)F)cc1 [Fluvoxamine maleate] | -1.24 |
| C[C@H](N[C@@H](CCc1ccccc1)C(=O)O)C(=O)N1CCC[C@H]1C(=O)O [Enalaprilat Dihydrate] | 1.11 |
| O=C(COc1cccc2c(=O)[nH]ccc12)c1ccccc1 | -0.26 |
| CC(C)c1nc(N(C)S(C)(=O)=O)nc(-c2ccc(F)cc2)c1/C=C/[C@@H](O)C[C@@H](O)CC(=O)O [Rosuvastatin Calcium] | 0.00394 |
| O=C(O)C1=C[C@@H](O)[C@@H](O)[C@H](O)C1 [Shikimic Acid] | -0.421 |
| C=C(C)[C@@H]1CC[C@]2(C(=O)O)CC[C@]3(C)[C@H](CC[C@@H]4[C@@]5(C)CC[C@H](O)C(C)(C)[C@@H]5CC[C@]43C)[C@@H]12 [Betulinic acid] | 1.29 |
| c1ccc2c(c1)CCCC2C1=NCCN1 (stereo unspecified) [Tetrahydrozoline HCl] | 0.283 |
| CC(=O)OCC(=O)NCCCOc1cccc(CN2CCCCC2)c1 [Roxatidine Acetate HCl] | -0.361 |
| CCn1cc(C(=O)O)c(=O)c2cc(F)c(N3CCNCC3)nc21 [Enoxacin] | 0.46 |
| OC[C@@H](O)[C@@H](O)[C@H](O)[C@H](O)CO [D-Mannitol] | -0.38 |
| O=C(O)C(Cc1ccccc1[N+](=O)[O-])=NNc1nc(-c2ccc(Cl)c(Cl)c2)cs1 | -1.61 |
| O=C1NC(=O)C(c2ccccc2[N+](=O)[O-])=C1Nc1ccc(O)c(Cl)c1 | 1.31 |
| O=C1NC(=O)/C(=C/c2ccc3nccc(-c4ccncc4)c3c2)S1 | 0.0148 |
| CCCc1ncc(C[n+]2ccccc2C)c(N)n1 [Amprolium HCl] | 0.0993 |
| CC(C(=O)O)c1cccc(Oc2ccccc2)c1 (stereo unspecified) [Fenoprofen Calcium] | 1.71 |
| Nc1[nH]cnc2ncnc1-2 [Adenine HCl] | 0.264 |
| NCCc1c[nH]cn1 [Histamine 2HCl] | 0.156 |
| OC(Cn1cncn1)(Cn1cncn1)c1ccc(F)cc1F [Fluconazole] | 0.595 |
| COc1cc2ncnc(Sc3nnc(C)s3)c2cc1OC | -0.237 |
| COc1cc(Br)c(Nc2nc(-c3c(C)nc4ncccn34)cs2)c(Br)c1 | -0.243 and -0.188 |
| CC(=Cc1ccc(C(=O)O)cc1)c1ccc2c(c1)C(C)(C)CCC2(C)C [TTNPB (Arotinoid Acid)] | -0.299 |
| CC(C)c1c(C(=O)Nc2ccccc2)c(-c2ccccc2)c(-c2ccc(F)cc2)n1CC[C@@H](O)C[C@@H](O)CC(=O)O [Atorvastatin Calcium] | -0.442 |

| Compound | miR-132-3p level in NGN2-iNs |
| --- | --- |
| CCN[C@H]1CN(CCCOC)S(=O)(=O)c2sc(S(N)(=O)=O)cc21 [Brinzolamide] | -0.404 |
| CC(C)(C)c1cnc(CSc2cnc(NC(=O)C3CCNCC3)s2)o1 | -0.331 |
| COc1cc2c(Nc3ccc(NC(=O)c4ccccc4)cc3)ncnc2cc1OCCCN1CCOCC1 | 0.134 |
| CC(=O)Nc1ccc(C(=O)Nc2ccccc2N)cc1 [Tacedinaline (CI994)] | -0.425 |
| O=C(O)[C@]1(Cc2cccc(Nc3nccs3)n2)CC[C@@H](Oc2cccc(Cl)c2F)CC1 | 0.713 |
| C#Cc1cccc(Nc2ncnc3cc(OC)c(OCCCCCCC(=O)NO)cc23)c1 | -0.131 |
| CCCc1cc(C(N)=S)ccn1 [Protionamide] | 0.739 |
| CNC1CCCN(c2c(F)cc3c(=O)c(C(=O)O)cn(C4CC4)c3c2OC)C1 (stereo unspecified) [Balofloxacin] | 0.0241 |
| C[C@H]1O[C@H](O[C@H]2[C@H](O)[C@@H](O)[C@@H](O[C@H]3[C@H](O)[C@@H](O)C(O)O[C@@H]3CO)O[C@@H]2CO)[C@H](O)[C@@H](O)[C@@H]1N[C@H]1C=C(CO)[C@@H](O)[C@H](O)[C@H]1O (stereo partly specified) [Acarbose] | 0.331 |
| CO[C@H]1/C=C/O[C@@]2(C)Oc3c(C)c(O)c4c(O)c(c(/C=N/N5CCN(C6CCCC6)CC5)c(O)c4c3C2=O)NC(=O)/C(C)=C\C=C\[C@H](C)[C@H](O)[C@@H](C)[C@@H](O)[C@@H](C)[C@H](OC(C)=O)[C@@H]1C [Rifapentine] | 0.25 |
| N=C(N)NC(=N)NCCc1ccccc1 [Phenformin HCl] | -0.66 |
| CN1CCC(=C2c3ccccc3C=Cc3ccccc32)CC1 [Cyproheptadine HCl] | -1.21 |
| c1ccc(NCc2ccc(CNc3ccccn3)cc2)nc1 | -0.381 |
| O=C(NC[C@H]1CN(c2ccc(N3CCOCC3=O)cc2)C(=O)O1)c1ccc(Cl)s1 [Rivaroxaban] | 0.255 |
| Cc1cc2c(cc1CC(=O)c1sccc1S(=O)(=O)Nc1onc(C)c1Cl)OCO2 [Sitaxentan sodium] | -0.935 |
| C[C@@]1(C(=O)Nc2ccc(F)nc2)CCCN1c1nc(Nc2cc(C3CC3)n[nH]2)c2cccn2n1 | -0.0521 |
| N#Cc1ccc(C(c2ccc(C#N)cc2)n2cncn2)cc1 [Letrozole] | 2.01 |
| O=C(Nc1cccc(Cl)c1)c1ccccn1 | -0.725 |
| COc1c2occc2cc2ccc(=O)oc12 [Methoxsalen] | 0.78 |
| NC(=O)c1ccc(N(C(N)=O)c2c(F)cccc2F)nc1-c1ccc(F)cc1F | -0.999 |
| CC(=O)Oc1ccccc1C(=O)Nc1ncc([N+](=O)[O-])s1 [Nitazoxanide] | 2.66 |
| Nc1c(CC(=O)O)cccc1C(=O)c1ccccc1 [Amfenac Sodium Monohydrate] | 2.1 |
| COc1ccc([C@@H]2CC(=O)c3c(O)cc(O)cc3O2)cc1O [Hesperetin] | 1.06 |
| COc1ccc(-c2ccc3c(N4CCOC[C@@H]4C)nc(N4CCOC[C@@H]4C)nc3n2)cc1CO | -1.06 |
| CC(C)C[C@H](NP(=O)(O)O[C@@H]1O[C@@H](C)[C@H](O)[C@@H](O)[C@H]1O)C(=O)N[C@@H](Cc1c[nH]c2ccccc12)C(=O)O [Phosphoramidon Disodium Salt] | -0.132 |

As entered above.
Value for C#Cc1cccc(Nc2ncnc3cc(OC)c(OCCCCCCC(=O)NO)cc23)c1 under miR-132-3p level in NGN2-iNs: -0.131
Value for C[C@@]1(C(=O)Nc2ccc(F)nc2)CCCN1c1nc(Nc2cc(C3CC3)n[nH]2)c2cccn2n1 under miR-132-3p level in NGN2-iNs: -0.0521
